Results are given in words; binding and its absence hold for the method and conditions named. Binding seen in cells or lysates may run through a third protein. Some results given as binding are weak or reduced against the parent protein; the word gives no strength. Each block holds one substance with its values, some of them ahead of it.
Columns and labels:
[1] = target: MPP-processed product of the MTP-CoxIV::Twin Strep::AnfK fusion polypeptide (SN195; encoded by SL34, SL37 and SL43) (Azotobacter vinelandii) (UniProt P16267); test: Strep-tactin XT pull-down of TwinStrep::AnfK from SL37-infiltrated leaves, anaerobic; anti-HA Western blot of the eluate
[2] = target: MPP-processed product of the MTP-CoxIV::Twin Strep::AnfK fusion polypeptide (SN195; encoded by SL34, SL37 and SL43) (Azotobacter vinelandii) (UniProt P16267); test: LC-MS and targeted MRM of the Strep-tactin XT eluate from SL37 leaves (anaerobic)
[3] = target: MPP-processed product of the MTP-CoxIV::Twin Strep::AnfK fusion polypeptide (SN195; encoded by SL34, SL37 and SL43) (Azotobacter vinelandii) (UniProt P16267); test: discussion of the Strep-tactin XT pull-down of TwinStrep::AnfK (SL34), aerobic
[4] = target: MPP-processed product of the MTP-CoxIV::Twin Strep::AnfK fusion polypeptide (SN195; encoded by SL34, SL37 and SL43) (Azotobacter vinelandii) (UniProt P16267); test: StrepTactin XT pull-down of TwinStrep::AvAnfK from leaves co-infiltrated with SL43 and SL49, anaerobic; anti-HA Western blot of the eluate
[5] = target: MPP-processed product of the MTP-CoxIV::Twin Strep::AnfK fusion polypeptide (SN195; encoded by SL34, SL37 and SL43) (Azotobacter vinelandii) (UniProt P16267); test: LC-MS and targeted MRM of the Strep-tactin XT eluate from SL34 leaves (aerobic)
[6] = target: MPP-processed product of the MTP-CoxIV::Twin Strep::AnfK fusion polypeptide (SN195; encoded by SL34, SL37 and SL43) (Azotobacter vinelandii) (UniProt P16267); test: Strep-tactin XT pull-down of TwinStrep::AnfK from SL34-infiltrated leaves, aerobic; anti-HA Western blot of the eluate
[7] = target: MPP-processed product of the MTP-FAγ51::AnfD::Twin Strep fusion polypeptide encoded by SL30 (Azotobacter vinelandii) (UniProt P16266); test: discussion of the Strep-tactin XT pull-down of AnfD::TwinStrep (SL30), aerobic
[8] = target: MPP-processed product of the MTP-FAγ51::AnfD::Twin Strep fusion polypeptide encoded by SL30 (Azotobacter vinelandii) (UniProt P16266); test: Strep-tactin XT pull-down of AnfD::TwinStrep from SL30-infiltrated leaves, aerobic; anti-HA Western blot of the eluate (faint but clearly visible band)

By UniProt entry, the sequences of proteins in these tests, tags left out. Where a name states a change or a piece, a line headed by the entry shows the natural chain unless it says otherwise.
UniProt P16267: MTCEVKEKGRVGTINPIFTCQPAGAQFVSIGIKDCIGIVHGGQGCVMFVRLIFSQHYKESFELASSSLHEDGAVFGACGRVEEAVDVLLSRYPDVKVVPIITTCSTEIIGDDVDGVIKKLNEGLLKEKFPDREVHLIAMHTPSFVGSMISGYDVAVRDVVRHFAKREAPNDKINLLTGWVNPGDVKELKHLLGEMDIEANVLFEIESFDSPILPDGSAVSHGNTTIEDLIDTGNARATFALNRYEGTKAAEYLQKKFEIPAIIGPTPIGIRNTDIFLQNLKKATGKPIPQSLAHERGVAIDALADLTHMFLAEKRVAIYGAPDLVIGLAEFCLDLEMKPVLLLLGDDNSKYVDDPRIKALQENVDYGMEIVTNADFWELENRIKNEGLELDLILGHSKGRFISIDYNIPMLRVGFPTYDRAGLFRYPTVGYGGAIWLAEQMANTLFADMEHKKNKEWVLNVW
UniProt P16266: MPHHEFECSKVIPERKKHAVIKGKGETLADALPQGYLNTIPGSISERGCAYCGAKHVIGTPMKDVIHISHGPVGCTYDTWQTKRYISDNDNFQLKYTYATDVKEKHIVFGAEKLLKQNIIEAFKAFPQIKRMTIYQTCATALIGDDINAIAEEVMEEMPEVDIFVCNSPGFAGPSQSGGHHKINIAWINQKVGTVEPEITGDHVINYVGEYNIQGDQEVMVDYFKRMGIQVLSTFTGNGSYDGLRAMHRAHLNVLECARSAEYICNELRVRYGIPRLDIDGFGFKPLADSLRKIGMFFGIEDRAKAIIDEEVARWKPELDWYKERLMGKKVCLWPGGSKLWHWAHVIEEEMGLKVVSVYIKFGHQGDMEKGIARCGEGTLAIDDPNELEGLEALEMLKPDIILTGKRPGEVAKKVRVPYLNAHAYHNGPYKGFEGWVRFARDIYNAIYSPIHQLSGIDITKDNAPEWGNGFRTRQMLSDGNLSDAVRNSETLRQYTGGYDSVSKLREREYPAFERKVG

binding [1]: binds
binding [2]: binds
Substance: MPP-processed product of the MTP-FAγ51::AnfD::HA fusion polypeptide (SN81; encoded by SL37) (from UniProt P16266 1-518) (enzyme)

binding [3]: binds
binding [4]: binds
binding [5]: binds
binding [6]: binds
Substance: MPP-processed product of the MTP-FAγ51::HA::AnfD fusion polypeptide (SN161; also encoded by SL26, SL34 and SL43) (from UniProt P16266 1-518) (enzyme)

binding [7]: binds
binding [8]: binds
Substance: MPP-processed product of the MTP-FAγ51::HA::AnfK fusion polypeptide (SN129; also encoded by SL26 and SL30) (from UniProt P16267 1-462) (enzyme)

From patent US20220170038A1
